Assay results reported in patent US20180230218A1.
No constants are given. Whether binding was seen depends on the method and setting. Some results given as binding are weak or reduced against the parent protein; the word gives no strength.

Protein sequences, listed by entry. Tags and fused reporters are not part of them. Residues count along the entry.
UniProt P08581, residues 25-932: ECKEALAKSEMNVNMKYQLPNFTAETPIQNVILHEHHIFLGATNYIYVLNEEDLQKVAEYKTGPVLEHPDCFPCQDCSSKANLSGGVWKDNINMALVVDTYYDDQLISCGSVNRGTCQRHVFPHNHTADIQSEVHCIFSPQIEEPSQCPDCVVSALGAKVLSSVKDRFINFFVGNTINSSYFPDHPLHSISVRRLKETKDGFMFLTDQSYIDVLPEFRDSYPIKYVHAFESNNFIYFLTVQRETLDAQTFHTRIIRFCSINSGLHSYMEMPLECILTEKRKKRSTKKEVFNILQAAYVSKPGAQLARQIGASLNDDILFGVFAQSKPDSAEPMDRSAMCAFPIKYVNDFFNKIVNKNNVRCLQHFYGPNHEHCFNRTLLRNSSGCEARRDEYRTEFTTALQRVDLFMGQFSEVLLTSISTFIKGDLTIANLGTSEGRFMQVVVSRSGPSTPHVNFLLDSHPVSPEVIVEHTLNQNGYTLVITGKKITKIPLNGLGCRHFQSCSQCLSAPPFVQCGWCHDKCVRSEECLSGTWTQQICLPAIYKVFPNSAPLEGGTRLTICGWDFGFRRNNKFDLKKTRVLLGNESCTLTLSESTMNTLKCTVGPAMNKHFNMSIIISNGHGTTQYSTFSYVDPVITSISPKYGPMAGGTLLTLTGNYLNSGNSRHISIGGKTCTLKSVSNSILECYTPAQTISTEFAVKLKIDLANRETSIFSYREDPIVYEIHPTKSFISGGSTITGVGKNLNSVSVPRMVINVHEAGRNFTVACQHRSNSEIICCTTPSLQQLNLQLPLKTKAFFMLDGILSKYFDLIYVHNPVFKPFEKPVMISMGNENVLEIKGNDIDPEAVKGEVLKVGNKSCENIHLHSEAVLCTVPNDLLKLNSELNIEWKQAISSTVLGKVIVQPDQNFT

Molecular target: Human cMet-ECD-his (human) (UniProt P08581)
Assay: BLI (ForteBio)

Row | Binder | binding
1 | hucMet22Gv2.2 (antibody, V domains shown) VH: QVQLVQSGAEVKKPGASVKVSCKASGYTFTDYNMDWVRQAPGQRLEWIGDLNPNNGATIYNQKFKGRATLTVDMSASTAYMELSSLRSEDTAVYYCARGNYYGNYYYLMDYWGQGTSVTVSS VL: DIQMTQSPSSLSASVGDRVTITCRASENIYSTLAWYQQKPGKAPKLLVYAATNLADGVPSRFSGSGSGTDYTLTISSLQPEDFATYYCQHFWGTPYTFGQGTKVEIKR | binds
2 | hucMet27v1.2 (antibody, human IgG1, kappa, V domains shown) VH: EVQLVESGGGLVQPGGSLRLSCAASGFTFSSYDMSWVRQTPGKGLELVATINSNGVSIYYPDSVKGRFTISRDIAKNTLYLQMSSLRAEDTAMYYCAREEITTEMDYWGQGTSVTVSS VL: DIVLTQSPASLAVSPGQRATISCRASESVDSYGNSFIHWYQQKPGQPPKLLIYRASNLESGIPARFSGSGSRTDFTLTINPVEANDVATYYCQQSNEEPLTFGGGTKLELKR | binds
